Results from patent US20100028331A1.
These are yes or no findings as the source states them, for the method shown. Some binding calls cover weakened binding; strength is not graded here.

Protein sequences, listed by entry. Tags and fused reporters are not part of them. Lines headed by an entry give the natural chain unless they say otherwise; changes in a name come on top.
UniProt P27037: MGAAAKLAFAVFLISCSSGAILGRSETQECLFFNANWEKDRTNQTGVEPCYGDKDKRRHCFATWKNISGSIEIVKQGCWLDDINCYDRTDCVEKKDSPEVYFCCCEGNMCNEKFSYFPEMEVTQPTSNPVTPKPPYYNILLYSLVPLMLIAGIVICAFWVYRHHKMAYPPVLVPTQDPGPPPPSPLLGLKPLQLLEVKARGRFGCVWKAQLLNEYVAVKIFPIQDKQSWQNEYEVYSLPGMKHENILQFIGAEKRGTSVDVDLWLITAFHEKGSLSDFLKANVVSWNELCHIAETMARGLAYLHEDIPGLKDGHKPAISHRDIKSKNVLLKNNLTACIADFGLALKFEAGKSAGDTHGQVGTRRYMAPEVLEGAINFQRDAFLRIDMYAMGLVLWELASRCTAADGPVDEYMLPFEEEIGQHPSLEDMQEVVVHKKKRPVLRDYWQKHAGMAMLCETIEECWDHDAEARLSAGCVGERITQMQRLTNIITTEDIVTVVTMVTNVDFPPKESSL

Target: T1, GDF-11 (UniProt O95390)
T1 sequence (looked up): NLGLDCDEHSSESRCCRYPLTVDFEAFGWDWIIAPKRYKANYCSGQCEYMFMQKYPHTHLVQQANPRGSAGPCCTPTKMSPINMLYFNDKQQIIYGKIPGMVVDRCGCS
Test: Biacore SPR; GDF-11 amine-coupled on CM5 chip

binding: binds
Substance: ActRIIa-mFc (from UniProt P27037 21-135) (Fc fusion)
